Measured values published in patent publication US10967078B2, “Radiolabelled mGluR2 PET ligands” (Janssen Pharmaceutica NV, priority 2014, dated 2021).
Some of these results come from one statement about several compounds together. At least one compound was matched to its structure with a doubt left.

Chains of the proteins cited; added tags and fusions are not shown. Residues count along the entry.
UniProt Q14BI2, 19-872: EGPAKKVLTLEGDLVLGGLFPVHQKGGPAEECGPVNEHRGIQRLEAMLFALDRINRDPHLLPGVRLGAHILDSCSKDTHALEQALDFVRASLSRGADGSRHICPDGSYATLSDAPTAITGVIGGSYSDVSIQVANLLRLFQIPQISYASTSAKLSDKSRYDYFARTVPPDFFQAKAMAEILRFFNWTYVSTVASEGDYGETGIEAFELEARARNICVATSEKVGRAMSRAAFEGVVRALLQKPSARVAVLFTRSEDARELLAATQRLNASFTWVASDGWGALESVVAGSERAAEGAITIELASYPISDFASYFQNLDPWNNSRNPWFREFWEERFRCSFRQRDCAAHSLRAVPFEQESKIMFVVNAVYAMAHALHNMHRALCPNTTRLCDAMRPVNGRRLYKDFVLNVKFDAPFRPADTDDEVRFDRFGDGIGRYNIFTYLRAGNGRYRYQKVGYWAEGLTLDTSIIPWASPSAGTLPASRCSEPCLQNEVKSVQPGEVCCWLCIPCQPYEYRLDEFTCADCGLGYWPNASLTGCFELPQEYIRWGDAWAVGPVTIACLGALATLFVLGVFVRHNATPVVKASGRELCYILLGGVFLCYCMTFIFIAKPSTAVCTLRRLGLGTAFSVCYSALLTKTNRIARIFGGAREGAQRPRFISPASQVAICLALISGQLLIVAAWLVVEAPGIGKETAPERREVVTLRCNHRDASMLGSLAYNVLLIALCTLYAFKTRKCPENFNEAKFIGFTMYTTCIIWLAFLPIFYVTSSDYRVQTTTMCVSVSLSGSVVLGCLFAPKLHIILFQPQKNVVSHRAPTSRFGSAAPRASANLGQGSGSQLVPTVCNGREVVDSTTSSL

What was measured:
[1] = Biodistribution studies in normal female Wistar rats; format: in vivo, rat; settings: all studied brain regions
Procedure: High-performance liquid chromatography (HPLC) analysis was performed on a LaChrom Elite® HPLC system (Hitachi, Armstadt, Germany) connected to a UV spectrometer. For the analysis of radiolabeled compounds, the HPLC eluate, after passage through the UV detector, was led over a shielded 3-inch NaI(Tl) scintillation detector connected to a single channel analyser (Gabi box, Raytest, Straubenhardt, Germany). The output signal was recorded and analysed using a GINA Star data acquisition system (Raytest, Straubenhardt, Germany). Radioactivity in samples of biodistribution studies was quantified using an automated gamma counter equipped with a 3-inch NaI(Tl) well crystal coupled to a multichannel analyser (Wallac 2480 Wizard, Wallac, Turku, Finland). Results were corrected for background radiation, physical decay and counter dead time. […]
Biodistribution studies of [^11C]-2 and [^11C]-1 were carried out in healthy female Wister rats (body weight 185-220 g) at 2 min, 30 min and 60 min post injection (p.i.) (n=3/time point). […] The radioactivity in blood, organs and other body parts was measured using an automated gamma counter. For calculation of total blood radioactivity, blood mass was assumed to be 7% of the body mass. For calculation of total muscle and total bone radioactivity, muscle and bone mass were assumed to be 40% and 12% of the body mass, respectively.

mGluR2 = molecular target: T1, mGluR2 (Mus musculus, UniProt Q14BI2); assay: In vitro autoradiography binding on mGluR2 KO and WT mouse brain sections; settings: Co. No. 1 10 μM
T1 construct: horizontal sections of mGluR2 KO and WT mouse brain and of normal female Wistar rat brain; from tissue; host or cells: mouse brain sections (WT and mGluR2 KO), 20 µm
Procedure: In vitro autoradiography studies were performed on horizontal sections of mGluR2 KO and WT mouse brain and of normal female Wistar rat brain (20 μm). The sections were preincubated in 50 mM Tris-HCl (MgCl2 2 mM, CaCl2 2 mM; pH 7.0) for 10 min (two times) at room temperature and dried. Next, the brain sections were incubated with tracer [^11C]-2, [^11C]-5, [^11C]-4, [^11C]-1 or [^18F]-3 diluted in the same Tris-HCl buffer as used for the preincubation additionally containing 0.1% BSA or with this tracer solution in the presence of 10 μM Co. No. 2 or Co. No. 1. The mouse brain sections were incubated with 17 kBq of carbon-11 labeled tracer and 1.7 kBq of fluorine-18 labeled tracer. […] After 30 min of incubation, the brain sections were washed three times for 5 min in ice-cold Tris-HCl 50 mM ((MgCl2 2 mM, CaCl2 2 mM; pH 7.0+0.1% BSA buffer). After a quick dip in purified ice-cold water, the slides were dried. Autoradiograms were obtained by exposing the slides overnight to a high-performance phosphor storage screen (super-resolution screen; Perkin Elmer, Waltham, USA). The screens were read using a Cyclone Plus system (Perkin Elmer) and analysed using Optiquant software (Perkin Elmer). The radioactivity concentration in the autoradiograms was expressed in digital light units (DLU)/mm^2. […]

SMILES: C[C@H]1CN(c2ccc(C(F)(F)F)cc2)C(=O)c2c(-c3ccnc([11CH3])c3)cnn21 [[^11C]-1]
- 2 min-to-30 min wash-out ratios [1]: > 2.3
- binding to WT mouse brain striatum and cortex blocked with Co. No. 1 (mGluR2): > 85%
